{
  "source": "paper PMC6167383",
  "about": "“Regulatory control of DNA end resection by Sae2 phosphorylation” (Nature Communications, 2018)",
  "molecular_target": "C-terminal domain of pSae2 (residues 170-345) dephosphorylated with λ phosphatase (pSae2 ΔN169 λ) (S. cerevisiae) (UniProt P46946)",
  "test": "SEC; Superose 6 10/300 GL, 50 mM Tris-HCl pH 7.5, 150 mM NaCl, 10% glycerol, 0.5 mM β-mercaptoethanol, 4 °C; ~75 μg of the Sae2 variant, mock-treated or treated with λ phosphatase for 90 min at 30 °C before loading; absorbance at 215 nm; both purified",
  "note": "Results are given in words; binding and its absence hold for the method and conditions named.",
  "data": [
    {"binder": "C-terminal domain of pSae2 (residues 170-345) dephosphorylated with λ phosphatase (pSae2 ΔN169 λ) (domain or fragment, UniProt P46946 170-345, dephosphorylated with λ phosphatase) IELENPESTSPNLYKNVKDNFLFDFNTNPLTKRAWILEDFRPNEDIAPVKRGRRKLERFYAQVGKPEDSKHRSLSVVIESQNSDYEFAFDNLRNRSKSPPGFGRLDFPSTQEGNEDKKKSQEIIRRKTKYRFLMASNNKIPPYEREYVFKREQLNQIVDDGCFFWSDKLLQIYARC", "values": [
      {"measurement": "binding", "value": "no binding"}
    ]}
  ]
}
